# From PubChem BioAssay AID590 (National Center for Advancing Translational Sciences (NCATS), 2007)
# The campaign covered roughly 59,000 compounds. About 6,500 (11%) were called active. The inconclusive results got no clear call from the source; some entries with a clear call stand among them for comparison. Rule as the data show it: active = max dye-equivalent concentration above about 10 nM; inconclusive = mostly about 1.1 nM to 9.6 nM; inactive = weaker than that.
# Assay: qHTS Assay for Spectroscopic Profiling in A350 Spectral Region
# Conditions: Compound autofluorescence, 340/450 nm, Alexa 350 dye-equivalents; hits give high values
row,SMILES,max dye-equivalent concentration
1,COc1ccc(CCn2c(N)c(C#N)c3nc4ccccc4nc32)cc1OC,active: 110 nM
2,c1ccc2c(NCC3CCCO3)nc(-c3ccncc3)nc2c1 (stereo unspecified),inconclusive: 1.5 nM
3,Cc1ccc(OCCn2c(NC(=O)c3ccco3)nc3ccccc32)cc1,inconclusive: 8.1 nM
4,CCOc1ccc2cc(C#N)c(SCC(=O)NC(C)CC)nc2c1 (stereo unspecified),active: 160 nM
5,CCC(C)n1[nH]c(=O)c2c(C)cc(C)nc21 (stereo unspecified),inconclusive: 2.1 nM
6,CCOC(=O)CC(C#N)c1cn(C)c2ccccc12 (stereo unspecified),inconclusive: 1.2 nM
7,CC(=O)O[C@H]1CSC[C@H]1NC(=O)c1ccccc1,inconclusive: 1.5 nM
8,CN(C)c1ncc2nc(-c3ccccc3)c(=O)n(Cc3cccs3)c2n1,active: 18 nM
9,COC(=O)[C@H](C)NC(=O)NC1CCCc2ccccc21 (stereo partly specified),inactive
10,O=C(Nc1cnn(Cc2ccc(Cl)cc2)c1)C1CCCC1,inconclusive: 1.3 nM
11,Nc1ccc2oc(CCc3ccccc3)nc2c1,inconclusive: 4.3 nM
12,COCCOC(=O)c1c(C)oc2ccc(OC(=O)c3c(OC)cccc3OC)cc12,inconclusive: 2.6 nM
13,COc1ccc(C2c3sc(=O)[nH]c3SC3C4CCC(C4)C23)cc1 (stereo unspecified),inactive
14,COc1ccc(-c2cc(N)n(S(=O)(=O)c3c(F)c(F)c(F)c(F)c3F)n2)cc1OC,inactive
15,CCOc1ccc2cc(C#N)c(SCC(=O)OC)nc2c1,active: 31 nM
16,CCC(C)NC(=O)CCNS(=O)(=O)c1ccc(Br)cc1 (stereo unspecified),inconclusive: 1.2 nM
17,O=C(CCn1nc(-c2ccc(Cl)cc2)ccc1=O)NCc1ccccn1,inconclusive: 1.3 nM
18,CC(C)(S)[C@@H](N)C(=O)O,inactive
19,CCn1c(=N)n(CC(=O)c2cccc(OC)c2)c2ccccc21,inconclusive: 1.5 nM
20,COc1ccc(S(=O)(=O)N(Cc2cc3ccc(OC)cc3[nH]c2=O)CC2COCCO2)cc1 (stereo unspecified),inconclusive: 4.8 nM
21,COc1ccc(N2CCCCn3c2nc2c3c(=O)n(C)c(=O)n2C)cc1,inactive
22,Cc1ccc(NC(=O)NC(=O)CN2C(=O)NC3(CCCCCCC3)C2=O)c(C)c1,inconclusive: 1.4 nM
23,O=C(COC(=O)c1cccs1)NCc1ccc2c(c1)OCO2,inactive

row,SMILES,max dye-equivalent concentration
1,Cc1ccc(C)c2[nH]c(=O)c(CN(CCN3CCOCC3)Cc3nnnn3CC3CCCO3)cc12 (stereo unspecified),inconclusive: 5.5 nM
2,Cc1cc(=O)oc2cc(OCC(O)CN3CCN(c4ccccc4)CC3)ccc12 (stereo unspecified),active: 11 nM
3,COC(=O)c1cc(Br)c(=O)n(Cc2ccc3c(c2)OCO3)c1,inactive
4,O=c1ccc2ccc(O)c(O)c2o1,inconclusive: 5.1 nM
5,CCOc1cc(NC(=O)c2ccco2)c(OCC)cc1NC(=O)CCC(=O)NCc1cccnc1,inconclusive: 2.6 nM
6,CN1CCN(c2ncc3nc(-c4cccs4)c(=O)n(CCc4ccccc4)c3n2)CC1,inconclusive: 2.1 nM
7,O=c1c2ccccc2c(/C=N/c2ncn[nH]2)c(O)n1Cc1ccccc1,active: 17 nM
8,CCOC(=O)c1ccc2nc(NC(=O)c3ccco3)sc2c1,inconclusive: 9.8 nM
9,O=C(COC(=O)c1ccccc1Nc1ccccc1)NCc1ccco1,active: 150 nM
10,O=C1NC(c2ccccc2)(C(F)(F)F)C(=O)N1Cc1cccnc1 (stereo unspecified),inconclusive: 2.2 nM
11,CCCc1[nH]nc2c1C(c1ccc(OCCN3CCOCC3)c(OC)c1)C(C#N)=C(N)O2 (stereo unspecified),inactive
12,O=C(N1CCN(Cc2ccccc2)CC1)C12CC3CC(CC(C3)C1)C2,inconclusive: 1.1 nM
13,CC(=O)NCCc1c[nH]c2ccc(O)cc12,inactive
14,O=S(=O)(c1cccc2c(I)cccc12)N1CCCNCC1,inactive
15,CCOc1ccc(NC(=O)Nc2ccc3c(c2)nnn3C)cc1,inconclusive: 1.1 nM
16,CC1CCN(CCCNC(=O)c2n[nH]c(=O)c3ccccc23)CC1,inactive
17,CC1(C)Cc2c(C#N)c(N3CCN(C(=O)c4ccco4)CC3)nc(Cc3ccccc3)c2CO1,active: 60 nM
18,CCOC(=O)C(C(C)=O)c1nc(C)nc2c1nnn2Cc1ccccc1Cl (stereo unspecified),inconclusive: 3.8 nM
19,CCn1c(SCC(=O)c2cc(OC)ccc2OC)nnc1C1CC1,inactive
20,O=C(COC(=O)CCCN1C(=O)c2ccccc2C1=O)Nc1ncc(Cl)cc1Cl,inactive
21,CCOC(=O)N1CCN(C(=O)Cc2ccc(-n3c(=O)[nH]c4ccccc4c3=O)cc2)CC1,inconclusive: 2.3 nM
22,CCOC(=O)N1CCN(C(=O)Cn2nc(C)c3sc4ccccc4c3c2=O)CC1,inconclusive: 9.5 nM
23,CCc1nc(C)cc(N)c1OCc1ccccc1,inactive

row,SMILES,max dye-equivalent concentration
1,Cc1ccc2cc3c(nc2c1)N(Cc1ccco1)CC3,inconclusive: 2.5 nM
2,CCCSc1nnc2n(C)c(=O)c3c4c(sc3n12)CCC4,inactive
3,CCCCOc1ccc(-c2nnn(CCC(=O)N3CCOCC3)n2)cc1,inactive
4,Cc1ccc(-c2csc3ncn(/N=C/N(C)C)c(=O)c23)o1,inconclusive: 5.5 nM
5,CNC(=O)OCc1cccc(COC(=O)NC)n1,inconclusive: 1.8 nM
6,CCn1nc(NC(=O)c2ccncc2)c2cc3cccc(C)c3nc21,inconclusive: 7.9 nM
7,Cc1oc2c(CN(C)C)c(O)ccc2c(=O)c1-c1ccc2ccccc2n1,inconclusive: 2.5 nM
8,Cc1ccc(-c2c3c(=O)n(C)c(=O)n(C)c3cn2Cc2ccccn2)cc1,active: 68 nM
9,CN1CCC(=C2c3ccccc3CC(=O)c3sccc32)CC1,inconclusive: 6.6 nM
10,COC(=O)CSc1nc2sc3c(c2c(=O)n1C1CCCCC1)CCN(C)C3,active: 140 nM
11,c1ccc2c(c1)oc1c(N3CCOCC3)ncnc12,inactive
12,CC1CC(=O)c2cnc(Nc3cccc(C(F)(F)F)c3)nc2C1 (stereo unspecified),inconclusive: 1.1 nM
13,Cc1noc(C)c1-c1nc(Nc2ccc(F)cc2)c2ccccc2n1,inconclusive: 3.6 nM
14,Cc1nc2cnc(N3CCN(C)CC3)nc2n(CCC#N)c1=O,inconclusive: 1.9 nM
15,COc1ccccc1N1CCN(CC(O)COc2cccc3ccccc23)CC1 (stereo unspecified),inconclusive: 2.6 nM
16,COC(=O)CSc1nc2cc(C)cc(C)c2cc1C#N,inconclusive: 8.5 nM
17,CC(C)COc1ccc(-c2nnn(CC(=O)N3CCCC3)n2)cc1,inactive
18,CC(NC(=O)CSc1nc2c(cc1C#N)CN(C)CC2)c1ccccc1 (stereo unspecified),active: 26 nM
19,COC(=O)c1[nH]c2cccc(OC)c2c1NC(=O)CN1CCN(c2cccc(OC)c2)C(C)C1 (stereo unspecified),inconclusive: 1.1 nM
20,Cc1ccc(S(=O)(=O)N[C@@H](CC(C)C)C(=O)NCc2ccco2)cc1,inconclusive: 1.5 nM
21,Cc1cc(C(=O)CN2C(=O)NC(Cc3c[nH]c4ccccc34)C2=O)c(C)n1C (stereo unspecified),inactive
22,COc1ccccc1CN1CCC2(CC1)CCN(C(=O)c1cccn1C)CC2,inactive
23,CCN1CCN(CC(O)COCc2ccccc2)CC1 (stereo unspecified),inconclusive: 1.5 nM

row,SMILES,max dye-equivalent concentration
1,CCC(C)(C)n1nnnc1C(CC(C)C)N1CCC(C(N)=O)CC1 (stereo unspecified),inconclusive: 1.8 nM
2,COc1ccc(OCc2nc(N)nc(Nc3cccc(C)c3C)n2)cc1,inactive
3,CC(C)(C)c1ccc(OC(=O)Nc2ccc(O)c(C(=O)O)c2)cc1,inconclusive: 1.8 nM
4,Cc1cc2oc3c(c(=O)c2cc1C)C(c1cccc(Br)c1)N(Cc1ccco1)C3=O (stereo unspecified),inactive
5,COc1ccccc1-c1c(C)oc2c(CN3CCN(CCO)CC3)c(O)ccc2c1=O,active: 760 nM
6,CCOc1ccc2[nH]c(=O)c(CN(Cc3cccs3)Cc3nnnn3C(C)(C)CC)cc2c1,active: 81 nM
7,O=C(Nc1ccc(N2CCN(C(=O)c3ccco3)CC2)cc1)c1ccccc1F,inconclusive: 1.9 nM
8,COc1ccc(COn2c(=O)c(C)[n+]([O-])c3ccccc32)cc1OC,inconclusive: 5.2 nM
9,C=C(c1ccc(O)cc1)c1ccc(O)cc1,inconclusive: 1.4 nM
10,CCC(C)[C@H](NC(=O)NC1CCCc2ccccc21)C(=O)O (stereo partly specified),inconclusive: 1.5 nM
11,Cc1ccc(S(=O)(=O)Nc2ccc(S(=O)(=O)N3CCCC3)cc2)cc1,inconclusive: 1.4 nM
12,C=CCn1c(SCc2nc3c(c(=O)[nH]c(=O)n3CCCC)n2CCC)nnc1-c1ccccc1,inconclusive: 1.3 nM
13,O=C(C1CCCCC1)N1CCN(c2ccccc2F)CC1,inconclusive: 7.1 nM
14,O=c1c(O)c(-c2cccs2)oc2ccccc12,active: 64 nM
15,COC(=O)c1cc(NC(=O)CN2CCC(C(N)=O)(N3CCCCC3)CC2)cc(C(=O)OC)c1,inconclusive: 1.2 nM
16,Cc1cc(C)nc(NC(=O)CSc2nnnn2-c2ccccc2)n1,inconclusive: 2.7 nM
17,COc1ccc(OC)c(S(=O)(=O)Nc2ccccc2C(=O)O)c1,inconclusive: 10 nM
18,COCCNC(=O)c1ccccc1NC(=O)c1ccc(OC)c(OC)c1,inconclusive: 2 nM
19,Cc1ccccc1Cn1cc(NC(=O)c2cc(-c3cccs3)on2)cn1,inconclusive: 8.7 nM
20,CCOC(=O)C1=C(C)NC(C)=C(C(=O)OCC)C1c1ccc(OC)cc1,active: 74 nM
21,CCOC(=O)N1CCC(NC(=O)c2ccc3c(c2)ncn3C2CCCC2)CC1,inconclusive: 1.6 nM
22,OC(CCCN1CCC(O)(c2ccc(Cl)cc2)CC1)c1ccc(F)cc1 (stereo unspecified),inconclusive: 1.7 nM

# Random excerpt: six entries already listed.
row,SMILES,max dye-equivalent concentration
17,COc1ccc(OC)c(S(=O)(=O)Nc2ccccc2C(=O)O)c1,inconclusive: 10 nM
20,CCOC(=O)C1=C(C)NC(C)=C(C(=O)OCC)C1c1ccc(OC)cc1,active: 74 nM
7,O=C(Nc1ccc(N2CCN(C(=O)c3ccco3)CC2)cc1)c1ccccc1F,inconclusive: 1.9 nM
6,CCOc1ccc2[nH]c(=O)c(CN(Cc3cccs3)Cc3nnnn3C(C)(C)CC)cc2c1,active: 81 nM
22,OC(CCCN1CCC(O)(c2ccc(Cl)cc2)CC1)c1ccc(F)cc1 (stereo unspecified),inconclusive: 1.7 nM
12,C=CCn1c(SCc2nc3c(c(=O)[nH]c(=O)n3CCCC)n2CCC)nnc1-c1ccccc1,inconclusive: 1.3 nM
